According to the RNAGym collection of RNA variant scans (doi:10.1126/science.aae0568):
Variants at the floor of the assay are shown more often than the library holds them.

B1: tRNA (parent)
chain: GUUCCGUUGGCGUAAUGGUAACGCGUCUCCCUCCUAAGGAGAAGACUGCGGGUUCGAGUCCCGUACGGAACG

Variants of: B1
Experiment: yeast fitness relative to wild type (ratio to wild type); higher = fitter; tRNA-Arg(CCU), competitive growth, 37 C, YPD
Method in brief: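 For this measurement, the tRNA-Arg(CCU) gene was varied by chemical synthesis at a 3% per-site mutation rate across 69 sites, and each variant was placed at the native genomic locus in Saccharomyces cerevisiae. The pooled strains went through a 24-hour competition in YPD at 37°C in six parallel replicates, with amplicons from start and end populations read by 100-nucleotide paired-end sequencing. Darwinian fitness relative to wild type followed from the change in each genotype's frequency. Genotypes needed ≥ 100 starting reads, and estimates < 0.5 were set to 0.5.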

Row | Variant | yeast fitness
1 | U8G C24U C29G C31A A45G C61U A65C G67A G68A | ≤ 0.5
2 | U8G C29G G38C G44A C55U C62U | ≤ 0.5
3 | U8G C34U A43C U53G | ≤ 0.5
4 | U8G C55U | 0.569
5 | U8G U19A C49G G56U | ≤ 0.5
6 | G9A A15U A45U A65C | ≤ 0.5
7 | G9A A15U A57G | ≤ 0.5
8 | G9A A21U A36G A40C C49U C66U | ≤ 0.5
9 | G9A A21U A36G A40C G56C | ≤ 0.5
10 | G9A A21U C31G G52C A70U | ≤ 0.5
11 | G9A A36G C61U G63C | ≤ 0.5
12 | G9A A45U A70U | 1.01
13 | G9A A65G G68C | 0.594
14 | G9A C11G C24G A42U | ≤ 0.5
15 | G9A C11U C49G U64A A69U | ≤ 0.5
16 | G9A C22G A45G | 0.588
17 | G9A C24G A37C A70U | ≤ 0.5
18 | G9A C24G C34G A45C A65G | ≤ 0.5
19 | G9A C24G C34G A69U | 0.533
20 | G9A C24U A40U G68C | ≤ 0.5
21 | G9A C27G A40G G52A | ≤ 0.5
22 | G9A C27G A40G G56C | ≤ 0.5
23 | G9A C31A U47A | ≤ 0.5
24 | G9A C33U G38C A40U A42C A57G | ≤ 0.5

Row | Variant | yeast fitness
25 | G9A C60G C66G G68A | ≤ 0.5
26 | G9A C62G | 0.896
27 | G9A G67U | 0.863
28 | G9A U13G U26C | ≤ 0.5
29 | G9A U16A C29U G39C U54C | ≤ 0.5
30 | G9A U16A G23C C24A U28G C34U A37U G68A | ≤ 0.5
31 | G9C A15G C34U G50A | ≤ 0.5
32 | G9C A20C A40U C61A G68A | ≤ 0.5
33 | G9C A20G C29G C34G | ≤ 0.5
34 | G9C A37U A40U | ≤ 0.5
35 | G9C A40C A42C A69C A70C | ≤ 0.5
36 | G9C A42U C55G | ≤ 0.5
37 | G9C C11A A15U C24G C33G G38C A43G C60U G63A | ≤ 0.5
38 | G9C C11A A40C U54A G68C A69U | ≤ 0.5
39 | G9C C11G G12C U28C C61U A65G | ≤ 0.5
40 | G9C C11U A20C C31U U59A | ≤ 0.5
41 | G9C C11U A36C | ≤ 0.5
42 | G9C C22A G58A C61U | ≤ 0.5
43 | G9C C24U G48C G51A G63A | ≤ 0.5
44 | G9C C24U G51A U59A | ≤ 0.5
45 | G9C C27G C33A U47A | ≤ 0.5
46 | G9C C27G G44A A57G G63A | ≤ 0.5
47 | G9C C27U A42U G63C A70U | ≤ 0.5
48 | G9C C30U C55G | ≤ 0.5

Row | Variant | yeast fitness
49 | G9C C31A C62G | ≤ 0.5
50 | G9C C31G A42C C55U G68A | ≤ 0.5
51 | G9C C34A G38A | ≤ 0.5
52 | G9C C34G U64A | ≤ 0.5
53 | G9C G12C A14G A20C C61A A69U | ≤ 0.5
54 | G9C G25C C31U A70G | ≤ 0.5
55 | G9C G41C A57C | ≤ 0.5
56 | G9C G44C G67A | ≤ 0.5
57 | G9C G48A A69C | 0.627
58 | G9C U16C C27G C29U U54C | ≤ 0.5
59 | G9C U26A A40C U47G | ≤ 0.5
60 | G9C U26C | 0.612
61 | G9C U26G G50C C55G C61G | ≤ 0.5
62 | G9C U35G C62A | ≤ 0.5
63 | G9C U47G C49A A69U | ≤ 0.5
64 | G9C U64A G67C A69U | ≤ 0.5
65 | G10A A14U A40G | ≤ 0.5
66 | G10A A14U G52C C62A | ≤ 0.5
67 | G10A A15C G23C A45C C66G | ≤ 0.5
68 | G10A A15G A36G U47C | ≤ 0.5
69 | G10A A20C G38A G41A C55G A69C | ≤ 0.5
70 | G10A A20G G23A A37G A40C | ≤ 0.5
71 | G10A A20U C27U U35C G48C C60A | ≤ 0.5
72 | G10A A21C C22A G25C G38A | ≤ 0.5

Row | Variant | yeast fitness
73 | G10A A21G C29A A69C | ≤ 0.5
74 | G10A A36G U53C | ≤ 0.5
75 | G10A A40G C55U | ≤ 0.5
76 | G10A A45C U64G | ≤ 0.5
77 | G10A C11G A36C C55G | ≤ 0.5
78 | G10A C11G U28A C33U G38A | ≤ 0.5
79 | G10A C11U A36C C49A | ≤ 0.5
80 | G10A C22U A69C | ≤ 0.5
81 | G10A C24G A43C | ≤ 0.5
82 | G10A C24G C46G | ≤ 0.5
83 | G10A C24G G58A | ≤ 0.5
84 | G10A C24U C29U C30G | ≤ 0.5
85 | G10A C29A C34G A43C U59C C60G | ≤ 0.5
86 | G10A C29G G52A | ≤ 0.5
87 | G10A C29U C34U G50A C55G | ≤ 0.5
88 | G10A C31U G38C G63A A65G G68C A69G | ≤ 0.5
89 | G10A C34U A37G G39C | ≤ 0.5
90 | G10A C46A A57G | ≤ 0.5
91 | G10A C46G A65C | 0.597
92 | G10A C60U C62U | ≤ 0.5
93 | G10A G17C C30G C33G G52C | ≤ 0.5
94 | G10A G18C A20U C30A A69U | ≤ 0.5
95 | G10A G23A G25A G38A A69C | ≤ 0.5
96 | G10A U13A | 0.684

Row | Variant | yeast fitness
97 | G10A U13A C24A | 0.582
98 | G10A U16A U59C | ≤ 0.5
99 | G10A U19A A42G C49U U64A | ≤ 0.5
100 | G10A U19A C29U G41C C66U | ≤ 0.5
101 | G10A U26A C49G | ≤ 0.5
102 | G10C A21G C55G A57G C60A | ≤ 0.5
103 | G10C A36C U47A G48C U54G A65C | ≤ 0.5
104 | G10C A36U A42G G56A U59G | ≤ 0.5
105 | G10C A37U A45G | ≤ 0.5
106 | G10C A37U G52A | ≤ 0.5
107 | G10C A40U U47C G68A | ≤ 0.5
108 | G10C A42G | 0.57
109 | G10C A43C A65U | ≤ 0.5
110 | G10C A43G C61A | ≤ 0.5
111 | G10C C11U C30U | ≤ 0.5
112 | G10C C11U C34A G44C U64A | ≤ 0.5
113 | G10C C22A C24G | ≤ 0.5
114 | G10C C22A C60G C61U G63A | ≤ 0.5
115 | G10C C22G C29A | ≤ 0.5
116 | G10C C22G C33U A36C A40U | ≤ 0.5
117 | G10C C22U C34U C55A | ≤ 0.5
118 | G10C C22U U59A | ≤ 0.5
119 | G10C C29A | ≤ 0.5
120 | G10C C29U A40U A65U | ≤ 0.5

Row | Variant | yeast fitness
121 | G10C C34G G67A | ≤ 0.5
122 | G10C G23A A70U | ≤ 0.5
123 | G10C G23C A45U U59G | 0.528
124 | G10C U13A A40C C60G | ≤ 0.5
125 | G10C U13A C30A A42C G56A A57U | ≤ 0.5
126 | G10C U13C G18C C27U C33G U64A G68C A70U | ≤ 0.5
127 | G10C U19C C22A C34G | ≤ 0.5
128 | G10C U26A C34G | ≤ 0.5
129 | G10C U28A | 0.59
130 | G10C U32C U35G A43C U47C C55U A69C | ≤ 0.5
131 | G10C U54C | ≤ 0.5
132 | G10U C11A G25C C29U A65C A70U | ≤ 0.5
133 | C11A A14G G18A C24U G41C C55G | ≤ 0.5
134 | C11A A15G C22U C29A A43U A45G A57U | ≤ 0.5
135 | C11A A20G G39A G51A U53A | ≤ 0.5
136 | C11A A21C A42C C61U | ≤ 0.5
137 | C11A A21G C22U A65G | ≤ 0.5
138 | C11A A21G C34U A37G | ≤ 0.5
139 | C11A A21G C34U A37G C62A | ≤ 0.5
140 | C11A A36G G52A | ≤ 0.5
141 | C11A A43U C62G A70U | ≤ 0.5
142 | C11A A43U C66G | ≤ 0.5
143 | C11A C24G U47G | ≤ 0.5
144 | C11A C27G A43C C60G | ≤ 0.5

Row | Variant | yeast fitness
145 | C11A C27U | 0.646
146 | C11A C27U G58A | ≤ 0.5
147 | C11A C30U C31G | ≤ 0.5
148 | C11A C30U C66U | ≤ 0.5
149 | C11A C33U A65G C66U | ≤ 0.5
150 | C11A C34G C60A C61U | ≤ 0.5
151 | C11A C46U A70G | 0.56
152 | C11A C55G C62G | ≤ 0.5
153 | C11A G17C A45G G67C | ≤ 0.5
154 | C11A G23A | ≤ 0.5
155 | C11A G25A | 0.572
156 | C11A G25C A37C | ≤ 0.5
157 | C11A G52C G67A | ≤ 0.5
158 | C11A U19A C29A | ≤ 0.5
159 | C11A U35G | 0.514
160 | C11A U35G U54C G67A | ≤ 0.5
161 | C11G A14U C27G | ≤ 0.5
162 | C11G A15G G68C | ≤ 0.5
163 | C11G A15U A36U | ≤ 0.5
164 | C11G A15U C31U U47G G58C C62U | ≤ 0.5
165 | C11G A20C A45G | ≤ 0.5
166 | C11G A21U A70U | ≤ 0.5
167 | C11G A21U G68C | ≤ 0.5
